These are yes or no findings as the source states them, for the method shown. For some assays here: In cells and extracts the contact can be indirect. Some entries that bind do so weakly or less than the wild type. Where a sequence is shown, tags or fusion partners need not be part of it.
Assays:
[1] = target: Soybean mosaic virus helper component-proteinase (Hc-Pro), full length, yeast two-hybrid fusion (Soybean mosaic virus (N1 strain)) (UniProt P21231); assay: two-hybrid
[2] = target: Soybean mosaic virus Hc-Pro, full length, split-YFP fusion for BiFC (Soybean mosaic virus (N1 strain)) (UniProt P21231); assay: split reporter

Binder | binding [1] | binding [2]
Soybean mosaic virus helper component-proteinase (Hc-Pro), full length, yeast two-hybrid fusion (protein, UniProt P21231) SQNPEAQFFRGWKKVFDKMPPHVENHECTTDFTNEQCGELAAAISQSIFPVKKLSCKQCRQHIKHLSWEEYKQFLLAHMGCHGPEWETFQEIDGMRYVKRVIETSTAENASLQTSLEIVRLTQNYKSTHMLQIQDINKALMKGPSVTQSELEQASKQLLAMTQWWKNHMTLTDEDALKVFRNKRSSKALLNPSLLCDNQLDKNGNFVWGERGRHSKRFFANYFEEVVPSEGYSKYVIRKNPNGQRELAIGSLIVPLDFERARMALQGKSVTREPITMSCISRQDGNFVYPCCCVTHDDGKAFYSELRSPTKRHLVIGTSGDPKYIDLPATDADRMYIAKEGFCYLNIFLAMLVNVNEDEAKDFTKMVRDVIVPRLGKWPTMLDVATAAYMLTVFHPETRNAELPRILVDHACQTMHVIDSFGSLTVGYHVLKAGTVNQLIQFASNDLQSEMKFYRVG | binds | –
Soybean mosaic virus Hc-Pro, full length, split-YFP fusion for BiFC (protein, UniProt P21231) SQNPEAQFFRGWKKVFDKMPPHVENHECTTDFTNEQCGELAAAISQSIFPVKKLSCKQCRQHIKHLSWEEYKQFLLAHMGCHGPEWETFQEIDGMRYVKRVIETSTAENASLQTSLEIVRLTQNYKSTHMLQIQDINKALMKGPSVTQSELEQASKQLLAMTQWWKNHMTLTDEDALKVFRNKRSSKALLNPSLLCDNQLDKNGNFVWGERGRHSKRFFANYFEEVVPSEGYSKYVIRKNPNGQRELAIGSLIVPLDFERARMALQGKSVTREPITMSCISRQDGNFVYPCCCVTHDDGKAFYSELRSPTKRHLVIGTSGDPKYIDLPATDADRMYIAKEGFCYLNIFLAMLVNVNEDEAKDFTKMVRDVIVPRLGKWPTMLDVATAAYMLTVFHPETRNAELPRILVDHACQTMHVIDSFGSLTVGYHVLKAGTVNQLIQFASNDLQSEMKFYRVG | – | binds

From article PMC7472419
